# Primary screen of a compound library

Amino acid sequences for entries named in this document (tags omitted).
UniProt P9WPC5, whole entry: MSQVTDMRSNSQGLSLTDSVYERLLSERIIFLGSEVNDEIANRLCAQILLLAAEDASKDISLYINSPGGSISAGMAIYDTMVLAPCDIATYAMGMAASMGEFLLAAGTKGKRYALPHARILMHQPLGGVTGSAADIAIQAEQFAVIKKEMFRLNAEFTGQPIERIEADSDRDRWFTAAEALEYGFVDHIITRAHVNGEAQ
UniProt P9WPC3, whole entry partner: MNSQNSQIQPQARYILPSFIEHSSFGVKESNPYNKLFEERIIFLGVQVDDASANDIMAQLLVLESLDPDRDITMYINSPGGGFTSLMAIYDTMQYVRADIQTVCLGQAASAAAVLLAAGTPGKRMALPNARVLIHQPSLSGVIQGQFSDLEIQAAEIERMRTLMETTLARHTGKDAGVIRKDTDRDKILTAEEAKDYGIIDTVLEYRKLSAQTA
UniProt I6X8D2, whole entry: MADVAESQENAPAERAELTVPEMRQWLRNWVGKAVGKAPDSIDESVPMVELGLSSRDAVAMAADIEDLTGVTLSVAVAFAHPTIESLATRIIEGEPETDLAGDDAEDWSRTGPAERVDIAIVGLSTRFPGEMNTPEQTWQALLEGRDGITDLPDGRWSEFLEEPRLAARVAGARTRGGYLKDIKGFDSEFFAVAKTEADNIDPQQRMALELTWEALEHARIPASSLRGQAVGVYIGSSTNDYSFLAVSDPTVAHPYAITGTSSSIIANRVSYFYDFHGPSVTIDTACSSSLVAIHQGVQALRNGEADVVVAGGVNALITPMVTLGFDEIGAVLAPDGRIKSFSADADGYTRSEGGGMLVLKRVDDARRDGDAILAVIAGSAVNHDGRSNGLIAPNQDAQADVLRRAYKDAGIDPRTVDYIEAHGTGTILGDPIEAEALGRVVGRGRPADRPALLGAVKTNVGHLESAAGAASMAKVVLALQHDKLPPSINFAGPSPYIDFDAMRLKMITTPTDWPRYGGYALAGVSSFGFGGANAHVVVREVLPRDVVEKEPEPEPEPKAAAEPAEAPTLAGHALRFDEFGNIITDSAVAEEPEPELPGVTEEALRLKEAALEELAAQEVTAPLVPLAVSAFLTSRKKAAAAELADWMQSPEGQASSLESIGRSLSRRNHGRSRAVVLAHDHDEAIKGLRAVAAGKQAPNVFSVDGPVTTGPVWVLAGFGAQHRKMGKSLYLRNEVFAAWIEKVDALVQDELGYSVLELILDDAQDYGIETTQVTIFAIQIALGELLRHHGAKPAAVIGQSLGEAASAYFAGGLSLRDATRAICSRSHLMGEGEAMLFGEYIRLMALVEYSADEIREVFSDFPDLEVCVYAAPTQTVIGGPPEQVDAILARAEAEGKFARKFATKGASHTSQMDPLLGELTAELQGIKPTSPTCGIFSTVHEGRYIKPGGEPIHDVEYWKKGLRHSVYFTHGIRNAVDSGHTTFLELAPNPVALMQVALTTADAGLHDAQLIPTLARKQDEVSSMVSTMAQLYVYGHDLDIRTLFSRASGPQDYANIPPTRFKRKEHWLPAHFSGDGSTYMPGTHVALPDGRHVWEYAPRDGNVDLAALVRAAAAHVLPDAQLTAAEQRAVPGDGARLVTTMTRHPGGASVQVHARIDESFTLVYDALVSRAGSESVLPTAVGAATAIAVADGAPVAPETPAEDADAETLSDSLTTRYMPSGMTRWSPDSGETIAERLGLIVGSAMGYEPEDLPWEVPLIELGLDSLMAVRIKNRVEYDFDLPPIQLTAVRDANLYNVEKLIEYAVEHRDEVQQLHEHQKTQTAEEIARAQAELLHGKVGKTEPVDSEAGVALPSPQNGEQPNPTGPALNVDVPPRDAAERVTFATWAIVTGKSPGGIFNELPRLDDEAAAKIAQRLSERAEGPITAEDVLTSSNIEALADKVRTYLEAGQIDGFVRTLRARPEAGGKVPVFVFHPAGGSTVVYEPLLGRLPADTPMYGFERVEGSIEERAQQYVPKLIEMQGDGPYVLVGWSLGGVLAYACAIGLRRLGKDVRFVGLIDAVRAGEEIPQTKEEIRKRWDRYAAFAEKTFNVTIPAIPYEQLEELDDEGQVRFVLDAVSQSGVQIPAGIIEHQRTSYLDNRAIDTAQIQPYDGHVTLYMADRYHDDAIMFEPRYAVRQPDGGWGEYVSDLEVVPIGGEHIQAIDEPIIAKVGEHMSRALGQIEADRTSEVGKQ

Data taken from ChEMBL document CHEMBL3988442, “University of Dundee, Small-Polar-MMV Screening Library” (2021).

The filed quantity is “Percent Effect” (%).
How 0% and 100% were set is not recorded. Most values in the screen are low, and negative values occur.
Compounds were drawn at random from those tested, without regard to their results.
Two or more numbers in one place are separate tests of the same structure; such repeats can differ widely.
A dash means the value is not listed here; it may have been measured.

Leishmania in macrophages: 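Cell assay of Leishmania donovani living inside macrophages; the read-out is not stated. Compounds at 30 µM. Direction is inferred from retests: higher values go with stronger inhibition. About 69,000 compounds were tested under these conditions; 1.5% (about 1,000) showed 50% or more at least once.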
Toxoplasma: 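Assay of Toxoplasma gondii numbers, read through their beta-galactosidase reporter with a colour substrate. Compounds at 10 µM. Higher reads as fewer parasites (inferred from which compounds were picked for retests). About 67,000 compounds were tested under these conditions; 0.38% (about 260) showed 50% or more at least once.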
ClpP1P2: 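ClpP1P2, Mycobacterium tuberculosis (UniProt P9WPC5 and UniProt P9WPC3). Protease assay of ClpP1P2, read by the AMC dye that it sets free. Compounds at 50 µM. Direction is inferred from only a few compounds that gave an IC50; most scored high, so higher reads as stronger inhibition. Most other retested compounds had strongly negative values. Size under these conditions: about 69,000 compounds, about 10 of them at 50% or above in at least one test.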
T. brucei: 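Whole-parasite assay of Trypanosoma brucei over 72 hours; the read-out is not stated. Tested at 30 µM. Higher reads as stronger inhibition (inferred: compounds with an IC50 in retests scored well above the rest). Values scatter widely below zero; nearly all retest evidence comes from the higher of the two concentrations used. Of about 64,000 compounds tested this way, about 940 (1.5%) reached 50% or more in at least one test.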
Pks13 thioesterase: 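Polyketide synthase Pks13, Mycobacterium tuberculosis (UniProt I6X8D2). Enzyme assay of the thioesterase domain of polyketide synthase 13; the read-out is not stated. Concentration: 30 µM. Higher reads as stronger inhibition (inferred from which compounds were picked for retests). About 67,000 compounds were tested under these conditions; 0.46% (about 300) showed 50% or more at least once.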

| compound | Leishmania in macrophages | Toxoplasma | ClpP1P2 | T. brucei | Pks13 thioesterase |
|---|---|---|---|---|---|
| `O=C(COc1ccc(-n2cccn2)nn1)N1CCCC1` | -1.144% | -12.47% | 2.348% | -5.082% | -12.64% |
| `Cc1cc(N2CCOC(CN)C2)nc(-c2ccccc2)n1` (stereo not given) | 33.82% | -1.535% | 0.8995% | 3.066% | -13.21% |
| `Cc1ccccc1N1CCN(C(=O)Cn2ccnc2)CC1=O` | 5.351% | 2.912% | 3.499% | -47.25% | -29.12% |
| `COc1ccc(NC(=O)N(CCO)Cc2ccsc2)cc1` | -65.03% | 13.25% | 1.555% | - | -9.888% |
| `CC(NC(=O)NCc1cccnc1N(C)C)c1ccc(F)cc1` (stereo not given) | 42.72% | -4.287% | -4.163% | -50.91% | 10.1% |
| `Cn1cc(CC(=O)N2CCC(Nc3cccnn3)CC2)c2ccccc21` | 20.51% | -3.671% | -2.406% | 7.295% | -12.83% |
| `CCN1C(=O)COC[C@@H]1[C@H](O)c1ccc(NC(=O)COC)cc1` | - | - | -5.741% | - | 5.063% |
| `O=C(O)C(F)(F)F.O=C(O)C(F)(F)F.[H][C@]12CCN(C(=O)C3CC3)CC[C@@]1([H])S(=O)(=O)CCN2Cc1cccnc1` | 2.605% | 28.22% | - | -45.23% | - |
| `c1cncc(CN2CCN3C[C@H](Oc4cncnc4)C[C@H]3C2)c1` | - | - | 1.564% | - | 0.8397% |
| `O=C(C1CCOC1)N1CCC2(CCN(Cc3nccs3)C2)CC1` (stereo not given) | 36.26% | -8.882% | 4.427% | 6.218% | -2.375% |
| `CN(C)C(=O)CCc1cncc(C2CCCN2Cc2ccccn2)n1` (stereo not given) | -6.733% and 7.561% | 18.59% | -6.02% | -6.842% | 10.01% |
| `Cc1ccc(C(=O)N(C)CC(=O)N2CCCC2)c(C)c1` | -8.501% | -1.836% | -9.638% | -17.35% | 1.992% |
| `CCn1ccnc1CN1CCN(CCOc2ccccc2OC)CC1` | 25.17% | -0.7057% | 4.155% | -2.831% | - |
| `CCOc1cccc2c1OCC(C(=O)NS(=O)(=O)Cc1ccccc1)=C2` | -13.38% | 2.585% | 1.531% | -41.45% | 2.584% |
| `Cc1noc(CN(Cc2ccco2)Cc2cccc3c2OCO3)n1` | 10.45% | 3.62% | -13.09% | 1.15% | -12.66% |
| `O=C(COCC1CC1)N1CCCC(n2cncn2)C1` (stereo not given) | 5.034% | 1.321% | 5.6% | -88.19% | -1.511% |
| `CS(=O)(=O)CCS(=O)(=O)Cc1cc(Cl)c2c(c1)OCCCO2` | 20.78% | 3.984% | -3.013% | 4.539% | -21.17% |
| `Cc1cc(F)ccc1N1CCC(N2C[C@@H](CN(C)C)[C@@H](CO)C2)CC1` | 95.44% | -12.06% | -8.21% | 2.834% | -35.82% |
| `Cc1nnc(C2CCN(C(=O)c3cnc4ccccc4n3)CC2)s1` | 21.37% | 1.371% | 8.385% | -17.07% | -7.056% |
| `CCCNC(=O)Cc1c(C)nc2c(c1C)c(=O)[nH]n2C` | 14.45% | 4.042% | -0.5671% | -19.79% | -26.45% |
| `[H][C@]12CC[C@]([H])(CN(c3ncccn3)C1)N(CCOC)C2=O` | 4.861% | 0% | - | -28.6% | - |
| `O=C(NCCCNC(=O)c1ccccc1)Nc1ccc(F)cc1F` | -25.11% | -3.061% | -2.124% | -12.51% | 4.813% |
| `Cc1nc(CCNc2ccc(-c3nc(C)c(C)c(=O)[nH]3)cn2)cs1` | -24.43% | -0.7917% | 5.309% | 23.1% | -3.865% |
| `CCSc1nnc([C@@H](N)CC(C)C)o1.Cl` | -1.211% | 5.466% | - | - | - |
| `c1ccc(Oc2nccnc2C2CCN(C3CCOCC3)CC2)cc1` | 42.56% | -3.662% | -7.817% | -8.365% | 8.657% |
| `COc1cccc(Nc2nc(C3CCCNC3)c3ccccn23)c1` (stereo not given) | - | - | -0.9341% | - | 9.185% |
| `c1cc(CN2CCCC2)ccc1CNc1cncc2nnnn12` | 10.79% | 12.89% | 11.64% | -27.98% | -17.03% |
| `CCCC(=O)NCCc1cc(NC)nc(-c2ccccn2)n1` | -25.04% | -37.3% | -6.505% | -8.69% | -2.39% |
| `C[C@@H]1CN(CC(C)(C)N2CCCCC2)C[C@@]1(O)C1CC1` | -6.991% | -4.025% | -2.379% | 3.398% | -16.85% |
| `CC(C)CCn1[nH]c(CNc2ccccc2)nc1=O` | 1.112% | 0.6536% | -11.72% | -24.01% | -22.53% |
| `Cc1ccc(Br)cc1C(=O)Nc1cc(C(N)=O)n(C)c1` | 13.53% | 6.196% | 0.3343% | -32.3% | -7.98% |
| `Cc1nc(N2CCN(C(=O)C3CCCC3)CC2)c2c(n1)c(C)nn2C` | -49.19% | -37.24% | 8.173% | -0.9728% | 7.926% |
| `CCc1ccc2nc(-c3cnn(C)c3)cc(C(=O)N3CCOCC3)c2c1` | 19.53% | 11.5% | -18.19% | -52.1% | 27.39% |
| `CCC(c1ccccc1)c1nn2c(CN(CC)CC)nnc2s1` (stereo not given) | 36.3% | 7.853% | 12.99% | -20.01% | 15.59% |
| `CCC(=O)NCC(=O)NCc1cc(Br)ccc1OC(F)F` | 8.663% | 2.203% | -8.865% | 5.544% | -21.14% |
| `CS(=O)(=O)N1CCCC1c1cccc(Cc2ccccc2F)n1` (stereo not given) | -7.033% | -3.575% | -0.09216% | 0.4351% | 51.77% |
| `Cc1nnc(C2CCN(C(=O)c3ccc4nccnc4c3)CC2)s1` | 3.19% | 2.33% | -3.323% | -19.47% | -5.472% |
| `Cc1cc(C)c2nc(CN3CCOC(CCO)C3)cc(O)c2c1` (stereo not given) | 23.6% | 4.155% | -13.21% | 1.812% | -16.61% |
| `COC(=O)NCC(=O)N1CCC(c2nc3cc(F)ccc3[nH]2)CC1` | 39.75% | -0.634% | -0.05167% | 8.13% | -16.9% |
| `COc1c(CNCc2ccc(S(C)(=O)=O)cc2)c(C)nn1C` | 5.503% | 3.706% | -12.24% | - | -14.64% |
| `O=C(NCc1ccccn1)C1=NN(c2ccccc2)C(=O)CN1` | 14.15% | -0.03786% | -14.25% | - | -0.8948% |
| `COc1c(CNCc2ccc(Cn3cccn3)cc2)c(C)nn1C` | 17.55% | -6.822% | -2.64% | -29.83% | 3.373% |
| `CCN(CC)C(=O)c1cccc(Cn2nc(C)cc2C)c1` | 19.06% | -0.523% | -6.053% | -12.46% | -20.33% |
| `CN(C)CC(=O)N1CCCC2(CCN(c3ccccc3)C2=O)C1.O=C(O)C(F)(F)F` (stereo not given) | -5.381% | -20.08% | - | -9.805% | - |
| `CC(C)N1CCC(CC(=O)NC(C(=O)O)c2cccc(F)c2)CC1` (stereo not given) | -1.559% | -14.32% | -2.469% | -1.866% | -4.591% |
| `CC(Cn1ccnc1)NC(=O)NCc1cccnc1OC1CCCC1` (stereo not given) | 16.77% | 8.16% | -24.62% | 0.3349% | -23% |
| `O=C(O)C(F)(F)F.O=C(O)C(F)(F)F.[H][C@@]12COC[C@]1([H])[C@@H](OCCN(C)C)CN2Cc1cccc(C#N)c1` | 40.1% | 1.816% | - | 6.798% | - |
| `CCc1nnc(Nc2cccc(C3CCN(C(=O)CO)CC3)n2)s1` | -10.07% | -36.04% | -7.784% | 0.7431% | 4.459% |
| `Cc1ccc(C)c2c(C)c(C(=O)NCCCn3cnnc3)[nH]c12` | 32.02% | 0.8626% | -0.8784% | -6.246% | 1.47% |
| `CCc1nc2n(n1)CC(NCc1ccnc(-c3ccccc3)n1)CC2` (stereo not given) | 10.06% | -3.327% | -3.634% | 25.12% | -4.085% |
| `Cc1ccc2c(c1)C1(CCNCC1)CC2NCCO.Cl.Cl` (stereo not given) | 42.56% | 16.95% | - | -90.57% | - |
| `CCOCC(=O)N1C[C@@H]2COC[C@H](c3nc(C)no3)[C@@H]2C1` | - | - | -6.526% | - | 4.903% |
| `O=C(O)C(F)(F)F.[H][C@@]12CN(C)C[C@]1(C(=O)N(C)C)CCC21CCN(S(=O)(=O)CC)CC1` | 6.823% | -6.892% | - | - | - |
| `Cc1cc(C)n(CC2CCCCN2CCCS(=O)(=O)N(C)C)n1` (stereo not given) | 33.76% | -9.058% | -18.06% | -37.97% | -0.9829% |
| `COc1ccc(Oc2cccc(C#N)n2)cc1CN1CCCC1` | -5.149% | -17.41% | -9.023% | 13.79% | -9.606% |
| `CC(C)n1cnc(-c2nc(C(=O)N3CCCC3)c3ccccn23)c1` | 21.44% | 12.17% | -595.7% | 1.743% | -9.397% |

3 of the entries, repeated:

compound	Leishmania in macrophages	Toxoplasma	ClpP1P2	T. brucei	Pks13 thioesterase
Cc1nnc(C2CCN(C(=O)c3ccc4nccnc4c3)CC2)s1	3.19%	2.33%	-3.323%	-19.47%	-5.472%
CCSc1nnc([C@@H](N)CC(C)C)o1.Cl	-1.211%	5.466%	-	-	-
CCOCC(=O)N1C[C@@H]2COC[C@H](c3nc(C)no3)[C@@H]2C1	-	-	-6.526%	-	4.903%